Experimental data published in patent US20170239253A1, “COMPOSITIONS AND METHODS FOR THE REDUCTION OR PREVENTION OF NON-ALCOHOLIC STEATOHEPATITIS (NASH)” (NuSirt Sciences, Inc., priority 2015, published 2017).
At least one compound was matched to its structure with a doubt left.

Tests used:
[1] = tested on: C57Bl/6 mice on high fat diet (HFD); experiment: Prophylactic treatment concurrent with high fat diet: liver mass and hepatic lipid accumulation; type: in vivo; details: Example 8; six weeks; leucine 24 g/kg diet; icariin 25 mg/kg diet
Procedure: In this study, the prophylactic effects of metformin alone, and various combinations of metformin, leucine, and resveratrol on liver mass and hepatic steatosis are assessed. C57Bl/6 mice are assigned to the following experimental groups as depicted in Table 25: Drug treatments and high fat diet feeding (as described in Example 1) are initiated on the same day and are carried out for six weeks. The effects of the treatments and diet on liver mass and hepatic lipid accumulation are assessed as described in the preceding examples. […] In this study, the prophylactic effects of metformin alone, and various combinations of metformin, HMB, and resveratrol on liver mass and hepatic steatosis are assessed. C57Bl/6 mice are assigned to the following experimental groups as depicted in Table 26: Drug treatments and high fat diet feeding (as described in Example 1) are initiated on the same day and are carried out for six weeks. The effects of the treatments and diet on liver mass and hepatic lipid accumulation are assessed as described in the preceding examples. […] In this study, the prophylactic effects of sub-therapeutic leucine alone, and co-administration of leucine and the PDE5-specific inhibitor icariin on liver mass and hepatic steatosis are assessed. […] The effects of the treatments and diet on liver mass and hepatic lipid accumulation are assessed as described in the preceding examples.

[2] = tested on: C57Bl/6 mice on high fat diet (HFD); experiment: Liver weight after six weeks treatment in chronic high fat diet model of hepatic steatosis; type: in vivo
C-reactive protein (CRP) = experiment: Circulating C-reactive protein, high fat diet model; type: in vivo, C57Bl/6 mice; details: Example 5; HFD mice, six weeks
[3] = tested on: C57Bl/6 mice on high fat diet (HFD); experiment: Histological analysis of hepatic lipid accumulation (hepatic steatosis), high fat diet model

Compound: CC(C)C[C@H](N)C(=O)O [leucine]
- HFD-induced increase in liver mass and hepatic lipid accumulation (prophylactic) [1]: no significant effect on HFD-induced increase in liver mass and hepatic lipid accumulation
- effect on liver weight ([2]; Example 2, metformin alone 1.5 g/kg diet, leucine 24 g/kg diet, resveratrol 12.5 mg/kg diet): no significant effect on liver weight
- effect on liver weight ([2]; Example 5, leucine 24 g/kg diet, icariin 25 mg/kg diet, p<0.01 vs. HFD for combination): no effect on liver weight
- circulating C-reactive protein (CRP) (C-reactive protein (CRP)): no independent effect
- hepatic steatosis (histology) ([3]; Example 2, HFD mice, six weeks, metformin alone at therapeutic dosage, combinations at sub-therapeutic dosages): did not appear to significantly reduce hepatic steatosis
- hepatic steatosis (histology) ([3]; Example 3, metformin alone therapeutic, leucine + metformin 0.5 g/kg): partially reversed hepatic steatosis
